# Source: paper PMC12585102
# Amino acid sequences for entries named in this document (tags omitted).
# UniProt Q9P2E3: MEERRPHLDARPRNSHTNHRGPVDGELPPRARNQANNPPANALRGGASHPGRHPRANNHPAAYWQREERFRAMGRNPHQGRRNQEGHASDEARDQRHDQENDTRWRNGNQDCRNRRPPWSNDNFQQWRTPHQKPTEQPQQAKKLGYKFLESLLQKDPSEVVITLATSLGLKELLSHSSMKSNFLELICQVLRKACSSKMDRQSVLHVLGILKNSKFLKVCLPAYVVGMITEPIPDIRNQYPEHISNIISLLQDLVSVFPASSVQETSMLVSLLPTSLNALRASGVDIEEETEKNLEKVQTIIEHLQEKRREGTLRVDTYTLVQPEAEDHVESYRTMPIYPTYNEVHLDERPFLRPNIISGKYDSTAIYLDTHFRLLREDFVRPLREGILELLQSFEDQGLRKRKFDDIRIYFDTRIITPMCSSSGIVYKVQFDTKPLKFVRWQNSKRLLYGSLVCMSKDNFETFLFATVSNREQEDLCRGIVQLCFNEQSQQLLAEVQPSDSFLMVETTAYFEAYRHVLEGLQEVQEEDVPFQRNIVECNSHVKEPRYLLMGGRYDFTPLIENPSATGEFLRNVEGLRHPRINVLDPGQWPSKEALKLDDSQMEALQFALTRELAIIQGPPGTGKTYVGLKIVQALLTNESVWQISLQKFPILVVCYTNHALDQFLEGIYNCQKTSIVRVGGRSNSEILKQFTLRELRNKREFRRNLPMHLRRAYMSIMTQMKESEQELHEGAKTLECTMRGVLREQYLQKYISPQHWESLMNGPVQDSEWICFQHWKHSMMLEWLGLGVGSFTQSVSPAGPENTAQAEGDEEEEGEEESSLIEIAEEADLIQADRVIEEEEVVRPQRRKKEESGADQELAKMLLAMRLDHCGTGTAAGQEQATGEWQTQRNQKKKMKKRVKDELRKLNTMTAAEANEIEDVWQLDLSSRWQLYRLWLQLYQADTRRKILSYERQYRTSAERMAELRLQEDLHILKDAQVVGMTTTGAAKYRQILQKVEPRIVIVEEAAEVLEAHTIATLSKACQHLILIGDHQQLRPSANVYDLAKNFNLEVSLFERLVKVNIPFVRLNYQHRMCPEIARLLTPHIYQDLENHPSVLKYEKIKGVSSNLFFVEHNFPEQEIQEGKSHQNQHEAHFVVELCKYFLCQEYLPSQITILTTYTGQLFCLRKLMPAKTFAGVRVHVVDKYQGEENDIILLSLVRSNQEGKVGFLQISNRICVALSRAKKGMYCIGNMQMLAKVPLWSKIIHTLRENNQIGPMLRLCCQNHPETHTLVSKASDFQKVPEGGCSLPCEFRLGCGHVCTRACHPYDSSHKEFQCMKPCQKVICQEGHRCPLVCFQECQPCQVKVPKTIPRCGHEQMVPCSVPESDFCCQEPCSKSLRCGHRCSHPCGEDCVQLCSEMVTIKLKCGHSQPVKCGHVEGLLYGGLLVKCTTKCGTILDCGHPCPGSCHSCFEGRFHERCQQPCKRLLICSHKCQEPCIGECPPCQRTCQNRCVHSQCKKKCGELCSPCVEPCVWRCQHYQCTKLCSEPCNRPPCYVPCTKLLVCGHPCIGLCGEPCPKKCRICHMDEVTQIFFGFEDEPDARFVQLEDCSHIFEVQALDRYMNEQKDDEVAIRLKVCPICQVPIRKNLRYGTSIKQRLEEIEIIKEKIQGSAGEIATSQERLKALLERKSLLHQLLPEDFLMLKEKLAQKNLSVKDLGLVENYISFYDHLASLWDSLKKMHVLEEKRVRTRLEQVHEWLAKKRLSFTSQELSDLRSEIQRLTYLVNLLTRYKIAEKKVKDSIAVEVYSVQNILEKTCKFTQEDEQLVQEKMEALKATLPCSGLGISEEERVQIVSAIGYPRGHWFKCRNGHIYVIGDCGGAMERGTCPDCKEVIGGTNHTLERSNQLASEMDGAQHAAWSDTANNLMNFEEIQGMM
# Results are given in words; binding and its absence hold for the method and conditions named. Binding seen in cells or lysates may run through a third protein. Some results given as binding are weak or reduced against the parent protein; the word gives no strength. Tags and fused reporters may be left off the sequences shown.
# Target: HsZNFX1-flag (human ZNFX1, flag-tagged) (human) (UniProt Q9P2E3)
# Assay: co-IP; HEK-293T cells transfected with EcMAVS-GFP (or GFP-tagged empty vector) together with HsZNFX1-flag; precipitating antibody not stated
binder,measurement,value
"EcMAVS-GFP (mitochondrial antiviral signalling protein of Epinephelus coioides, GFP-tagged) (protein, UniProt A0A2D1AFT4 1-563) MSFVNDRLYNEFVRRKMSIFVHKVDVGEIIYHLPCLTAHDREHIEAKRQNRGNREGVMELLDCLKRRENWPEQFIEALDACEQWTLAAEMREKYNALRGIKRAAVAPPAEASAPPEPAAQASPPVQPQAPQSSAAQVPEAVSPPEPVPEPPQSTQAEVAPPPSTPPPSPAAPHTQPATPPPPQRETNSHQEPVENSESDIQDVSADDVVIPDQVSAGNREVSISSVDAPQPSRPVEQCETHTASPDPLQTTTTSTEVSPPQSPSASQMNSDVTNGSSFLTLTPERPPVQDTSPPGDFKAVLQPEETSEPPAAQVVESSPQTEAAATTSPPLGAAGMGAPLCGDSSVCLSKPGPLISVHPLNHSSPTIPAQSLPVPPYSGNTERLEISSSVSDAVTTAQSSTCSYVSSTTVTTASAPPCQETGIALNHNEPEENHYESPRNSLGMQSVQEHVGHVSEEPSILNLDGQNLTPQVPAVDSEAAKEMTFAPPLSNTAADTVRSVNTSCSENHHPCEPTPTDLSAEQKTLQGSEDKMACRTLTPNTKYILIAAGVGVCALLIAWRFKH",binding,binds
